Measurements from article PMC10313471.
No constants are given. Whether binding was seen depends on the method and setting. In cells and extracts the contact can be indirect. Some results given as binding are weak or reduced against the parent protein; the word gives no strength.

Amino acid sequences for entries named in this document (tags omitted). Residues count along the entry.
UniProt P17931: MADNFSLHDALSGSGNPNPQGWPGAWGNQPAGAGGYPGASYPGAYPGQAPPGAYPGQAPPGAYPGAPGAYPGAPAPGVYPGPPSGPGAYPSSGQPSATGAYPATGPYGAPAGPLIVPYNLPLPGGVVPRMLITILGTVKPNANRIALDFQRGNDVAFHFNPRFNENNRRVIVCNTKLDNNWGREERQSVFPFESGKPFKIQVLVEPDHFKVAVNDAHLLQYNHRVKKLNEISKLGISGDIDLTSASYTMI
UniProt P24043, residues 23-3122: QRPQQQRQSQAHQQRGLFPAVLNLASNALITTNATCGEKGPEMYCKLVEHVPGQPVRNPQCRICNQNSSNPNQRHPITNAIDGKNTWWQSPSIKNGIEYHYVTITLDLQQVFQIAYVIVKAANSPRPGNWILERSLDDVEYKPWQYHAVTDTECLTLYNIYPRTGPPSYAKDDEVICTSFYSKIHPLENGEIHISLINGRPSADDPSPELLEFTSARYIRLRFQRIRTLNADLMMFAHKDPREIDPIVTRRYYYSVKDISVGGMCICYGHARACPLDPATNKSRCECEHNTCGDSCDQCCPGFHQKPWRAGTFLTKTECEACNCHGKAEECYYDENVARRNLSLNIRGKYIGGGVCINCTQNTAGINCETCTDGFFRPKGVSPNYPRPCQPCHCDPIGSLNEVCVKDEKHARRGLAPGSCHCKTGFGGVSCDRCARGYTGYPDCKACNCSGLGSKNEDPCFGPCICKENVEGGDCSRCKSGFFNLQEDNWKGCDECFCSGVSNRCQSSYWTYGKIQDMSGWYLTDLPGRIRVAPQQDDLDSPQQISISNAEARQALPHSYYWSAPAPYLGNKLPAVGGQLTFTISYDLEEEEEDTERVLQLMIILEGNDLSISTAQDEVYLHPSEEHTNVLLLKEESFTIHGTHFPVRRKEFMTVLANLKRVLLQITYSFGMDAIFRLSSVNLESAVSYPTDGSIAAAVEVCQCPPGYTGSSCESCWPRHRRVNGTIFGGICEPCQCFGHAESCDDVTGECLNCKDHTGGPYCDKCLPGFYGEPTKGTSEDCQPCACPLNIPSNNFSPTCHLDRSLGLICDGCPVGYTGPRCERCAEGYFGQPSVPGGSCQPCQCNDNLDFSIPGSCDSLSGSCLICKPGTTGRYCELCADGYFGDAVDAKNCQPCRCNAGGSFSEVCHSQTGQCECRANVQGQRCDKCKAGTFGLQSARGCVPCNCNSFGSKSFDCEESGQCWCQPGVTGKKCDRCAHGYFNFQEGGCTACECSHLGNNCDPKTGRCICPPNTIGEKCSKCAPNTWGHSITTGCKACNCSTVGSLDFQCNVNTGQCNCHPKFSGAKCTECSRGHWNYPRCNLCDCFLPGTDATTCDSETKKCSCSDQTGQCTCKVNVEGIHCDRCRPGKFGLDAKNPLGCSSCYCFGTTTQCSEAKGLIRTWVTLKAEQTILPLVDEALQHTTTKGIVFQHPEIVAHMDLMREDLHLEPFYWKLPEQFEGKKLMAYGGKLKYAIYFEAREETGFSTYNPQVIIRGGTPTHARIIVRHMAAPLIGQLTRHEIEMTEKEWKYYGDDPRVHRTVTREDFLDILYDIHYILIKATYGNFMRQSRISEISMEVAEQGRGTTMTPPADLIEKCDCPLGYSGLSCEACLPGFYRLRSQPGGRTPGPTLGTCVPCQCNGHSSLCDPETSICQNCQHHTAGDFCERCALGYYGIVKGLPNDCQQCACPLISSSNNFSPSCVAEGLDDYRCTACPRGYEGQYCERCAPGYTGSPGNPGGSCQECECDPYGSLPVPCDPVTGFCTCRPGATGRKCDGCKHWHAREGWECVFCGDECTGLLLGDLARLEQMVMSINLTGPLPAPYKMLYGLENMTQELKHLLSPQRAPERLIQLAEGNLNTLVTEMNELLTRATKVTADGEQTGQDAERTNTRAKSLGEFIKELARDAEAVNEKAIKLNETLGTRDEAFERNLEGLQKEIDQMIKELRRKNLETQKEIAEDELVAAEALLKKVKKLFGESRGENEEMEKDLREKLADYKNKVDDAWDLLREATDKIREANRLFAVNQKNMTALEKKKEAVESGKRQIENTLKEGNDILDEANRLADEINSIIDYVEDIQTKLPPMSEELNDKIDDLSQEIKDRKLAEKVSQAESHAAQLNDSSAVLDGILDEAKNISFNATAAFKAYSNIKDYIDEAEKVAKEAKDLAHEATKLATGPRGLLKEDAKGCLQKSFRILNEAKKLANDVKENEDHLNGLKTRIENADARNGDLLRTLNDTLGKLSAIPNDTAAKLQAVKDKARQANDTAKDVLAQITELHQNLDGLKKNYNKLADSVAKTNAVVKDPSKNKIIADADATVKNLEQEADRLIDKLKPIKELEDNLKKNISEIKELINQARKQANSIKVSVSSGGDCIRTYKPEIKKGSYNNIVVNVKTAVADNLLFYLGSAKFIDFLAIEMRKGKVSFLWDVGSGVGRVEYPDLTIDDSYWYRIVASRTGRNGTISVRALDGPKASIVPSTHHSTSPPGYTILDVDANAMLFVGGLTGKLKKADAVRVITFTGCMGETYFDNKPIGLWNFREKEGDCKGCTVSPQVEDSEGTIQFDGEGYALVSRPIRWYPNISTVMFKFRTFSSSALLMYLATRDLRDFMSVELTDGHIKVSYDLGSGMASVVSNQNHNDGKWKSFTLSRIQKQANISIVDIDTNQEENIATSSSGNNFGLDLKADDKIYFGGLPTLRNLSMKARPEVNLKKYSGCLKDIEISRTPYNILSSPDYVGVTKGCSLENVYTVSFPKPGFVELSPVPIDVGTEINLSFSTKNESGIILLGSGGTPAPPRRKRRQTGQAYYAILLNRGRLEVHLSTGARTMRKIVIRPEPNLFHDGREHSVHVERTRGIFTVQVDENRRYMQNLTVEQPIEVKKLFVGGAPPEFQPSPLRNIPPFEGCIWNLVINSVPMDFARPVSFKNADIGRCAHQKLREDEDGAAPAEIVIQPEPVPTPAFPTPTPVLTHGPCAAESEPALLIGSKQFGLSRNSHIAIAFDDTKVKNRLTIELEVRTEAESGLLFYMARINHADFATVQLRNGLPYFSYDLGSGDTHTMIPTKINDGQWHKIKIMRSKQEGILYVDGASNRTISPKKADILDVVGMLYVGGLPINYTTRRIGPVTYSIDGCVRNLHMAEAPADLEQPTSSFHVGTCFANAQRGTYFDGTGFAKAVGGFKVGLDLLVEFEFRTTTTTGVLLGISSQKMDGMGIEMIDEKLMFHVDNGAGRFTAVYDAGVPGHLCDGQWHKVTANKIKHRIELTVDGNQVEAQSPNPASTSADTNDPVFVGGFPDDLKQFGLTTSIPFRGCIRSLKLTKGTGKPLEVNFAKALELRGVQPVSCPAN

Target: galectin-3, endogenous in BMP7-induced human cementoblast-like cells (human (endogenous in hPDLCs)) (UniProt P17931)
Experiment: co-IP; anti-galectin-3 immunoprecipitation from extracts of cementoblast-like cells, blot with anti-LAMA2; no GB1107

Q: With “laminin α2 (from UniProt P24043 23-3122)” as the substance, how does the binding read?
A: Its binding is “binds”.
